## Results of single-concentration screens

A: 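Growth of Mycobacterium tuberculosis over 3 days (7H9 medium with glucose and tyloxapol); the read-out is not stated. Tested at 500 µM. The record gives no direction; compounds that gave an IC50 in retests scored well above the rest, so higher reads as more growth inhibition. Size under these conditions: about 18,000 compounds, about 1,400 of them at 50% or above in at least one test.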
B: 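Whole-cell growth test on Mycobacterium tuberculosis, read after 4 days in a medium based on cholesterol and the lipid DPPC; the read-out is not stated. Tested at 500 µM. The record gives no direction; compounds that gave an IC50 in retests scored well above the rest, so higher reads as more growth inhibition. Size under these conditions: about 18,000 compounds, about 900 of them at 50% or above in at least one test.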

Results are given as percent effect.
How 0% and 100% were set is not recorded. Most values in the screen are low, and negative values occur.
Compounds were drawn at random from those tested, without regard to their results.

Result for Nc1ccc(N2CCNC(=O)C2)cn1 was A: -34.6%; B: -43%.
Result for CCN1CCCC1CNCC(=O)N(C)C (stereo unspecified) was A: -19.39%; B: -44.99%.
Result for O=C(c1ccncc1C(F)(F)F)N1CC[C@@H](CO)C1 was A: -2.158%; B: -5.325%.
Result for Cc1cc(CS(=O)(=O)c2ccccn2)no1 was A: 9.106%; B: 0.2723%.
Result for CN(C)CCC1CN(C(=O)C2CCCCC2)CCO1 (stereo unspecified) was A: 2.056%; B: -16.08%.
Result for NCc1ccnc(C(N)=O)c1 was A: 7.305%; B: 0.7659%.
Result for COc1ccc(C(=O)NCc2c(C)noc2C)cn1 was A: 32.14%; B: 10.22%.
Result for COCC1CCN(C(=O)CCc2cscn2)CC1 was A: 44.92%; B: 33.81%.
Result for COCC1CN(c2ccc3nccn3n2)CCO1 (stereo unspecified) was A: 5.53%; B: 10.29%.
Result for NC(=O)CC1(N2CCOCC2)CCCC1 was A: 4.658%; B: 2.069%.
Result for CCOC(=O)N(C)CC(=O)Nc1ccccc1F was A: 6.865%; B: -2.595%.
Result for Cn1c(=O)[nH]c(=O)c2cccnc21 was A: 19.28%; B: 5.021%.
Result for Nc1nc(-c2c(F)cccc2F)co1 was A: 77.72%; B: 9.666%.
Result for CCOc1nnc(CN2CCC(C(N)=O)CC2)s1 was A: 24.46%; B: 23.64%.
Result for CNC(=O)c1cccc(-c2nc(C(C)(C)OC)no2)c1 was A: 2.79%; B: 9.288%.
Result for OCCN1CCN(c2ccc3ccccc3n2)CC1 was A: 24.2%; B: 12.4%.
Result for Cc1cc(NC(=O)CSCC(=O)OC2CCOC2)no1 (stereo unspecified) was A: 2.951%; B: -22.43%.
Result for CC1Oc2ccc(Cl)cc2NC1=O (stereo unspecified) was A: 4.478%; B: -2.102%.
Result for COc1ccc(CN2CCCN(S(N)(=O)=O)CC2)cc1 was A: 20.02%; B: 5.028%.
Result for Cc1cccc(NC(=O)[C@@H]2CCCN2)n1 was A: -1.422%; B: -25.06%.
Result for CCCn1ccnc1CNC(=O)[C@H](N)CC(C)(C)C was A: 16.22%; B: 15.43%.
Result for CSc1ccc(OCC(=O)NC2CCS(=O)(=O)C2)cc1 (stereo unspecified) was A: 26.02%; B: 14.57%.
Result for N[C@@H]1CCN(Cc2cc(F)cc(C(F)(F)F)c2)C[C@H]1O was A: 60.36%; B: 41.99%.
Result for CCNC(=O)c1cc(N2CCC(C(N)=O)C2)ccn1 (stereo unspecified) was A: -2.445%; B: 1.927%.
Result for CC(C)c1nnc(C2CNCCO2)o1 (stereo unspecified) was A: 13.18%; B: 5.453%.
Result for CCC(N)c1nnc2n1CCCCC2 (stereo unspecified) was A: 12.88%; B: -4.523%.
Result for Cc1ccc(C(=O)N2CCCC(C)(C#N)C2)cc1O (stereo unspecified) was A: 19.05%; B: 14.4%.
Result for CCC(C)(O)CN1CCC(Cn2cncn2)CC1 (stereo unspecified) was A: 8.039%; B: -3.657%.
Result for Cc1nnnn1CCC(=O)NCc1cn2ccsc2n1 was A: 21.54%; B: 16.46%.
Result for CCC(CN)NC(=O)OC(C)(C)C (stereo unspecified) was A: 15.1%; B: 10.93%.
Result for CC(C)CC(O)CNC(=O)CN1CCCCC1=O (stereo unspecified) was A: 9.767%; B: -9.107%.
Result for NC(=O)Cc1cccc(NC(=O)NC2CCOCC2)c1 was A: 3.031%; B: -7.745%.
Result for CS(=O)(=O)C1CSCCN1C(=O)c1cccc(Cl)c1 (stereo unspecified) was A: -9.263%; B: -1.167%.
Result for CC(=O)N1CCN(CC(O)c2ccc(C)c(C)c2)CC1 (stereo unspecified) was A: 8.033%; B: -0.6571%.
Result for CC(C)C1CN(C)CCN1Cc1ccc(C#N)o1 (stereo unspecified) was A: 13.03%; B: 15.47%.
Result for CCC(CC)C(O)CNC(=O)CC1(O)CCCC1 (stereo unspecified) was A: -1.977%; B: -0.8166%.
Result for Cc1cnc(NC(=O)CCOC(C)C)[nH]1 was A: 9.655%; B: 6.252%.

Once more, the final 4:

{"smiles": "CC(=O)N1CCN(CC(O)c2ccc(C)c(C)c2)CC1", "stereo": "stereo unspecified", "A": 8.033, "B": -0.6571}
{"smiles": "CC(C)C1CN(C)CCN1Cc1ccc(C#N)o1", "stereo": "stereo unspecified", "A": 13.03, "B": 15.47}
{"smiles": "CCC(CC)C(O)CNC(=O)CC1(O)CCCC1", "stereo": "stereo unspecified", "A": -1.977, "B": -0.8166}
{"smiles": "Cc1cnc(NC(=O)CCOC(C)C)[nH]1", "A": 9.655, "B": 6.252}

From ChEMBL document CHEMBL3988442, “University of Dundee, Small-Polar-MMV Screening Library” (2021).